The data set can be described thus: Glycemia in streptozotocin-diabetic rats. Format: in vivo, rat.

SMILES strings stand for the structures.

Consider `COc1cc(C)c(S(=O)(=O)N(C)CCOCC(=O)N(C)Cc2ccc(C3=NCCN3)cc2)c(C)c1` [compound n° 49 phosphate], for which, under “diabetic Wistar rats, 1% phosphate eye drops for 7 days”, the effect on glycemia entry was “without affecting”.

On to `COc1cc(C)c(S(=O)(=O)N(C)CCOCC(=O)N(C)Cc2ccc(C3=NCCN3)cc2)c(C)c1` [compound n° 49], for which the effect on glycemia result (diabetic Brown-Norway and Wistar rats, eye drops 7 days) is reported as “did not affect”.

The record behind these values is US20130315903A1, “ARYLSULFONAMIDE DERIVATIVES FOR THE PREVENTION OR TREATMENT OF SPECIFIC OPHTHALMOLOGIC DISORDERS” (FOVEA PHARMACEUTICALS, priority 2010, published 2013).
